# Values from PubChem BioAssay AID1259308 (NCATS, 2017)
# Test: 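Candidate targets for better recombinant protein yield in mammalian cells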 (primary screen)
# Cell system: human HEK293 embryonic kidney cells stably expressing firefly luciferase (HEK-CMV-Luc2-Hygro)
# Knock-down reagent: single siRNA against human genes, 0.8 pmol siRNA per well
# Time to read-out: 72 h
# Measured: 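Luciferase light (ONE-Glo) measured on one replicate plate set and viability (CellTiter-Glo) on the other, scaled to a negative control siRNA, with robust z-scores and luciferase per cell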
# Reading the numbers: total luciferase, z-score and total luciferase, % of control: higher = more reporter protein produced; luciferase per cell, z-score: higher = more reporter output per viable cell; viable cells, % of control: higher = more viable cells
# Rule for the call: 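An siRNA counts as active if its total luciferase robust z-score exceeds 3; genes with two or more such siRNAs out of three were retested with fresh siRNAs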
# Calls: active = raised luciferase; inactive = no rise
# In all, the deposit lists about 59,000 reagents; below is a random part of them. About 1,510 of them (2.6%) count as active. 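Calls use total luciferase alone and ignore viability, so some active siRNAs may act by altering cell number.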 Reagents against one gene are numbered here.
target,reagent,"total luciferase, z-score","total luciferase, % of control","luciferase per cell, z-score","viable cells, % of control",outcome
RTN2 (reticulon 2),1,1.68,115,1.56,85.4,inactive
RTN2 (reticulon 2),2,-1.41,53.8,-0.492,68.5,inactive
RTN2 (reticulon 2),3,-0.104,79.8,-0.614,105,inactive
CEP350 (centrosomal protein 350),1,0.179,85.4,-0.175,100,inactive
CEP350 (centrosomal protein 350),2,-0.702,67.9,-0.0784,77.5,inactive
CEP350 (centrosomal protein 350),3,-0.295,76,-0.0569,86.2,inactive
H3C11 (H3 clustered histone 11),1,-0.818,65.6,-0.344,80.3,inactive
H3C11 (H3 clustered histone 11),2,1.59,114,1.87,77.6,inactive
H3C11 (H3 clustered histone 11),3,-0.0945,80,-0.55,103,inactive
RFX2 (regulatory factor X2),1,-2.98,22.6,-1.41,36.6,inactive
RFX2 (regulatory factor X2),2,-0.844,65.1,-0.574,84.6,inactive
RFX2 (regulatory factor X2),3,-0.426,73.4,-0.681,98.1,inactive
HOXC12 (homeobox C12),1,-0.37,74.5,-0.27,89.4,inactive
HOXC12 (homeobox C12),2,1.74,116,1.59,85.6,inactive
HOXC12 (homeobox C12),3,0.935,100,1.5,75.7,inactive
LZTFL1 (leucine zipper transcription factor like 1),1,-0.432,73.3,0.0422,81,inactive
LZTFL1 (leucine zipper transcription factor like 1),2,0.597,93.8,0.703,87.1,inactive
LZTFL1 (leucine zipper transcription factor like 1),3,2.57,133,4.39,46.8,inactive
CD14 (CD14 molecule),1,0.298,87.8,-0.0468,99.3,inactive
CD14 (CD14 molecule),2,1.59,114,1.17,93.3,inactive
CD14 (CD14 molecule),3,0.409,90,-0.257,108,inactive
FCRL3 (Fc receptor like 3),1,-0.441,73.1,-0.537,94.1,inactive
FCRL3 (Fc receptor like 3),2,-0.663,68.7,0.208,72.7,inactive
FCRL3 (Fc receptor like 3),3,0.156,85,0.901,74.9,inactive
DEFA5 (defensin alpha 5),1,2.43,130,2.57,73.9,inactive
DEFA5 (defensin alpha 5),2,-0.165,78.6,-0.107,90.3,inactive
DEFA5 (defensin alpha 5),3,1.73,116,2.26,71.8,inactive
MAP2K3 (mitogen-activated protein kinase kinase 3),1,0.537,92.6,0.775,84.4,inactive
MAP2K3 (mitogen-activated protein kinase kinase 3),2,-0.381,74.3,-0.362,91.3,inactive
MAP2K3 (mitogen-activated protein kinase kinase 3),3,0.143,84.7,0.42,84.8,inactive
SLC44A3,1,1.17,105,1.59,77.3,inactive
SLC44A3,2,-0.0705,80.5,-0.45,101,inactive
SLC44A3,3,0.112,84.1,-0.409,105,inactive
SERPINB11 (serpin family B member 11),1,-0.512,71.7,0.806,64.8,inactive
SERPINB11 (serpin family B member 11),2,-1.16,58.9,-0.815,81.6,inactive
SERPINB11 (serpin family B member 11),3,-0.647,69,-1.03,101,inactive
TBL2 (transducin beta like 2),1,-0.0822,80.3,-0.236,95.4,inactive
TBL2 (transducin beta like 2),2,0.425,90.3,-0.0174,101,inactive
TBL2 (transducin beta like 2),3,1.2,106,1.51,79.4,inactive
TXNDC12 (thioredoxin domain containing 12),1,0.183,85.5,-0.228,101,inactive
TXNDC12 (thioredoxin domain containing 12),2,-0.237,77.2,0.316,79.3,inactive
TXNDC12 (thioredoxin domain containing 12),3,-0.0725,80.4,0.116,87.2,inactive
COX15 (cytochrome c oxidase assembly factor COX15),1,1,102,1.89,69.2,inactive
COX15 (cytochrome c oxidase assembly factor COX15),2,0.68,95.4,0.515,93.1,inactive
COX15 (cytochrome c oxidase assembly factor COX15),3,0.225,86.4,0.158,92.6,inactive
XPR1 (xenotropic and polytropic retrovirus receptor 1),1,1.05,103,1.11,85.8,inactive
XPR1 (xenotropic and polytropic retrovirus receptor 1),2,3.92,160,2.12,102,active
XPR1 (xenotropic and polytropic retrovirus receptor 1),3,-1.35,55,-2.16,108,inactive
WSCD1 (WSC domain sialate O sulfotransferase 1),1,1.02,102,0.793,92.7,inactive
WSCD1 (WSC domain sialate O sulfotransferase 1),2,-1.74,47.2,-1.98,88.8,inactive
WSCD1 (WSC domain sialate O sulfotransferase 1),3,0.118,84.2,1.47,64,inactive
GNRH2 (gonadotropin releasing hormone 2),1,1.12,104,1.26,83.5,inactive
GNRH2 (gonadotropin releasing hormone 2),2,0.547,92.8,0.48,91.4,inactive
GNRH2 (gonadotropin releasing hormone 2),3,1.87,119,1.71,84.9,inactive
MAP3K11 (mitogen-activated protein kinase kinase kinase 11),1,0.85,98.8,0.376,100,inactive
MAP3K11 (mitogen-activated protein kinase kinase kinase 11),2,0.803,97.9,0.815,88.2,inactive
MAP3K11 (mitogen-activated protein kinase kinase kinase 11),3,-2.71,28.1,-2.86,66.6,inactive
ITGB4 (integrin subunit beta 4),1,-1,62,-0.662,82.4,inactive
ITGB4 (integrin subunit beta 4),2,-0.682,68.3,-1.13,103,inactive
ITGB4 (integrin subunit beta 4),3,2.1,124,1.32,97.7,inactive
IQCF5 (IQ motif containing F5),1,-0.819,65.6,-0.511,83.9,inactive
IQCF5 (IQ motif containing F5),2,0.908,100,0.923,87.6,inactive
IQCF5 (IQ motif containing F5),3,-0.56,70.8,-0.483,89.8,inactive
ZEB2 (zinc finger E-box binding homeobox 2),1,1.07,103,0.645,97.2,inactive
ZEB2 (zinc finger E-box binding homeobox 2),2,-0.401,73.9,-0.22,87.5,inactive
ZEB2 (zinc finger E-box binding homeobox 2),3,-0.241,77.1,-0.733,104,inactive
OR5A2 (olfactory receptor family 5 subfamily A member 2),1,0.501,91.9,0.0333,102,inactive
OR5A2 (olfactory receptor family 5 subfamily A member 2),2,0.0905,83.7,-0.132,96.8,inactive
OR5A2 (olfactory receptor family 5 subfamily A member 2),3,-1.61,49.9,-0.0126,55.9,inactive
CNKSR3 (CNKSR family member 3),1,0.897,99.7,0.706,92.5,inactive
CNKSR3 (CNKSR family member 3),2,2.04,122,1.14,101,inactive
CNKSR3 (CNKSR family member 3),3,2.32,128,2.55,73.1,inactive
CCR3 (C-C motif chemokine receptor 3),1,1.35,109,0.618,103,inactive
CCR3 (C-C motif chemokine receptor 3),2,0.58,93.4,0.711,86.6,inactive
CCR3 (C-C motif chemokine receptor 3),3,-2.03,41.6,-1.99,78.5,inactive

A stretch taken from the entries so far:
target,reagent,"total luciferase, z-score","total luciferase, % of control","luciferase per cell, z-score","viable cells, % of control",outcome
HOXC12 (homeobox C12),1,-0.37,74.5,-0.27,89.4,inactive
HOXC12 (homeobox C12),2,1.74,116,1.59,85.6,inactive
HOXC12 (homeobox C12),3,0.935,100,1.5,75.7,inactive
LZTFL1 (leucine zipper transcription factor like 1),1,-0.432,73.3,0.0422,81,inactive
